Source: PubChem BioAssay AID1508597 (Cure First, 2020)

Aim: 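Survival screen with siRNA in ovarian cancer cells derived from patients, with or without rucaparib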 (primary screen)
System: human ovarian carcinoma lines grown from tumours: OCI-P5x (papillary serous) and OCI-C5x (clear cell)
Reagent: siRNA pool against human genes, 1.25 pmol siRNA per well
Time to read-out: 72 h or 96 h, depending on the cell culture
Challenge: rucaparib 20 µM (about IC30) or vehicle, present until read-out
Detection: 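ATP luminescence measured at 72 or 96 h according to the culture, then normalised and expressed as percent viability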
Scale: viability, normalised: higher = more viable cells remaining
Hit rule: 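a well counts as a hit if its normalised viability is under 80 percent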
Calls: active = viability under 80%; inactive = viability 80% or more
The deposit covers about 2,100 reagents; shown is an unselected part. 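Calls flag viability under 80% in either arm, not effects specific to rucaparib; the reference for percent is not stated.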 Unmarked entries are inactive. Not stated in the record: the 100% reference.

gene,rucaparib or vehicle,cell line,technical replicate,"viability, normalised (%)"
MAP2K2 (GeneID 5605),Rucaparib,OCI-C5x (clear cell),1,46.7 (active)
MAP2K2 (GeneID 5605),Rucaparib,OCI-C5x (clear cell),2,51.4 (active)
MAP2K2 (GeneID 5605),Rucaparib,OCI-C5x (clear cell),3,59.7 (active)
MAP2K2 (GeneID 5605),Rucaparib,OCI-P5x (serous),1,88.3
MAP2K2 (GeneID 5605),Rucaparib,OCI-P5x (serous),2,83.8
MAP2K2 (GeneID 5605),Rucaparib,OCI-P5x (serous),3,88.9
MAP2K2 (GeneID 5605),Vehicle,OCI-C5x (clear cell),1,38.8 (active)
MAP2K2 (GeneID 5605),Vehicle,OCI-C5x (clear cell),2,52.4 (active)
MAP2K2 (GeneID 5605),Vehicle,OCI-C5x (clear cell),3,43 (active)
MAP2K2 (GeneID 5605),Vehicle,OCI-P5x (serous),1,79.7 (active)
MAP2K2 (GeneID 5605),Vehicle,OCI-P5x (serous),2,68.2 (active)
MAP2K2 (GeneID 5605),Vehicle,OCI-P5x (serous),3,55.6 (active)
PDE6B (GeneID 5158),Rucaparib,OCI-C5x (clear cell),1,53.2 (active)
PDE6B (GeneID 5158),Rucaparib,OCI-C5x (clear cell),2,39.6 (active)
PDE6B (GeneID 5158),Rucaparib,OCI-C5x (clear cell),3,40.1 (active)
PDE6B (GeneID 5158),Rucaparib,OCI-P5x (serous),1,59.1 (active)
PDE6B (GeneID 5158),Rucaparib,OCI-P5x (serous),2,75.4 (active)
PDE6B (GeneID 5158),Rucaparib,OCI-P5x (serous),3,58.9 (active)
PDE6B (GeneID 5158),Vehicle,OCI-C5x (clear cell),1,51.4 (active)
PDE6B (GeneID 5158),Vehicle,OCI-C5x (clear cell),2,53.8 (active)
PDE6B (GeneID 5158),Vehicle,OCI-C5x (clear cell),3,43.9 (active)
PDE6B (GeneID 5158),Vehicle,OCI-P5x (serous),1,74.1 (active)
PDE6B (GeneID 5158),Vehicle,OCI-P5x (serous),2,69.8 (active)
PDE6B (GeneID 5158),Vehicle,OCI-P5x (serous),3,66.9 (active)
DHX38 (GeneID 9785),Rucaparib,OCI-C5x (clear cell),1,50.5 (active)
DHX38 (GeneID 9785),Rucaparib,OCI-C5x (clear cell),2,60 (active)
DHX38 (GeneID 9785),Rucaparib,OCI-C5x (clear cell),3,50.6 (active)
DHX38 (GeneID 9785),Rucaparib,OCI-P5x (serous),1,72.3 (active)
DHX38 (GeneID 9785),Rucaparib,OCI-P5x (serous),2,80.4
DHX38 (GeneID 9785),Rucaparib,OCI-P5x (serous),3,74.2 (active)
DHX38 (GeneID 9785),Vehicle,OCI-C5x (clear cell),1,60 (active)
DHX38 (GeneID 9785),Vehicle,OCI-C5x (clear cell),2,55 (active)
DHX38 (GeneID 9785),Vehicle,OCI-C5x (clear cell),3,51.9 (active)
DHX38 (GeneID 9785),Vehicle,OCI-P5x (serous),1,73.1 (active)
DHX38 (GeneID 9785),Vehicle,OCI-P5x (serous),2,86.3
DHX38 (GeneID 9785),Vehicle,OCI-P5x (serous),3,80.6
GK (GeneID 2710),Rucaparib,OCI-C5x (clear cell),1,53.9 (active)
GK (GeneID 2710),Rucaparib,OCI-C5x (clear cell),2,50.4 (active)
GK (GeneID 2710),Rucaparib,OCI-C5x (clear cell),3,66.5 (active)
GK (GeneID 2710),Rucaparib,OCI-P5x (serous),1,102
GK (GeneID 2710),Rucaparib,OCI-P5x (serous),2,83.7
GK (GeneID 2710),Rucaparib,OCI-P5x (serous),3,80.8
GK (GeneID 2710),Vehicle,OCI-C5x (clear cell),1,72.7 (active)
GK (GeneID 2710),Vehicle,OCI-C5x (clear cell),2,56.3 (active)
GK (GeneID 2710),Vehicle,OCI-C5x (clear cell),3,64.2 (active)
GK (GeneID 2710),Vehicle,OCI-P5x (serous),1,123
GK (GeneID 2710),Vehicle,OCI-P5x (serous),2,105
GK (GeneID 2710),Vehicle,OCI-P5x (serous),3,103
CLDN1 (GeneID 9076),Rucaparib,OCI-C5x (clear cell),1,40.6 (active)
CLDN1 (GeneID 9076),Rucaparib,OCI-C5x (clear cell),2,47.4 (active)
CLDN1 (GeneID 9076),Rucaparib,OCI-C5x (clear cell),3,45.3 (active)
CLDN1 (GeneID 9076),Rucaparib,OCI-P5x (serous),1,79.2 (active)
CLDN1 (GeneID 9076),Rucaparib,OCI-P5x (serous),2,68.7 (active)
CLDN1 (GeneID 9076),Rucaparib,OCI-P5x (serous),3,77 (active)
CLDN1 (GeneID 9076),Vehicle,OCI-C5x (clear cell),1,49.9 (active)
CLDN1 (GeneID 9076),Vehicle,OCI-C5x (clear cell),2,59 (active)
CLDN1 (GeneID 9076),Vehicle,OCI-C5x (clear cell),3,41.1 (active)
CLDN1 (GeneID 9076),Vehicle,OCI-P5x (serous),1,70.9 (active)
CLDN1 (GeneID 9076),Vehicle,OCI-P5x (serous),2,82.5
CLDN1 (GeneID 9076),Vehicle,OCI-P5x (serous),3,92.3

In a second layout: entries from further up
gene	rucaparib or vehicle	cell line	technical replicate	viability, normalised (%)
GK (GeneID 2710)	Vehicle	OCI-C5x (clear cell)	1	72.7 (active)
GK (GeneID 2710)	Vehicle	OCI-C5x (clear cell)	2	56.3 (active)
GK (GeneID 2710)	Vehicle	OCI-C5x (clear cell)	3	64.2 (active)
GK (GeneID 2710)	Vehicle	OCI-P5x (serous)	1	123
GK (GeneID 2710)	Vehicle	OCI-P5x (serous)	2	105
